Where two headings read alike, the source gives them in different places. No constants are given. Whether binding was seen depends on the method and setting. Binding seen in cells or lysates may run through a third protein. Some binding calls cover weakened binding; strength is not graded here. For some assays here: Sequences can lack the tags named with a protein. Blank lines part the entries; values can stand above or below the molecule they belong to.
Key:
Assay in all cases: co-IP
[1] = molecular target: T1, MAP4K4 intermediate domain 1 (ID1, 290-634), 3xFLAG-tagged (human) (UniProt O95819)
T1 sequence: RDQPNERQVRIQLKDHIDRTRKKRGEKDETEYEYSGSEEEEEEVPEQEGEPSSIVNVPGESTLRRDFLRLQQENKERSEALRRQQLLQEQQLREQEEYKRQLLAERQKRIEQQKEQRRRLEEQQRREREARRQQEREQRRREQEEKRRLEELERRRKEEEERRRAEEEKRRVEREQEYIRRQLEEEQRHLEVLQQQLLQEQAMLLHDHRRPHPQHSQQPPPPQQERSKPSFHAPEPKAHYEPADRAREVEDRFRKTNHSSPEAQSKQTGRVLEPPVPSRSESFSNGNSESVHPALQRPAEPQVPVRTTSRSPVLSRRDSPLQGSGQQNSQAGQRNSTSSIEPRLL

Protein sequences, listed by entry. Tags and fused reporters are not part of them.
UniProt Q5VSL9: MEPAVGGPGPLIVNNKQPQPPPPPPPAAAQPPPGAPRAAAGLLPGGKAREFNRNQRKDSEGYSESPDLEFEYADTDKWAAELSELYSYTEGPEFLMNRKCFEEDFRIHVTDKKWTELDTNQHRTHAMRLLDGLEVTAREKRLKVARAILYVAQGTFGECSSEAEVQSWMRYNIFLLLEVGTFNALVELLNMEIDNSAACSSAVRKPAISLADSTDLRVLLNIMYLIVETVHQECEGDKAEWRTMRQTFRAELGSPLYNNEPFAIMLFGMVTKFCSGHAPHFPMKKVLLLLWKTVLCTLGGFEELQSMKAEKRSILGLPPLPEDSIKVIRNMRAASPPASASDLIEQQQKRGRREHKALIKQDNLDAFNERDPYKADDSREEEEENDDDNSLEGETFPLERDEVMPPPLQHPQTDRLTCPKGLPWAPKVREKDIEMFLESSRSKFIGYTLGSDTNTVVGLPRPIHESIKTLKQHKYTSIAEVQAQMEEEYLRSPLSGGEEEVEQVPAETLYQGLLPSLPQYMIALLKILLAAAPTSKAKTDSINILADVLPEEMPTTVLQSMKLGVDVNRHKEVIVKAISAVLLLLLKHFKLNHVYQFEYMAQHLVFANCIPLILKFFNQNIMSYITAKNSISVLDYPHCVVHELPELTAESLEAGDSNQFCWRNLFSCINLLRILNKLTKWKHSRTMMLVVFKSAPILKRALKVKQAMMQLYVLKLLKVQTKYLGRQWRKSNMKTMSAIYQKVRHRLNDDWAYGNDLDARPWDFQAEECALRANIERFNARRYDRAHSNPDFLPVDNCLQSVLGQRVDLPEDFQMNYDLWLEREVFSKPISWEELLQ

[2] = molecular target: T2, MAP4K4 intermediate domain 2 (ID2, 635-954), 3xFLAG-tagged (human) (UniProt O95819)
T2 sequence: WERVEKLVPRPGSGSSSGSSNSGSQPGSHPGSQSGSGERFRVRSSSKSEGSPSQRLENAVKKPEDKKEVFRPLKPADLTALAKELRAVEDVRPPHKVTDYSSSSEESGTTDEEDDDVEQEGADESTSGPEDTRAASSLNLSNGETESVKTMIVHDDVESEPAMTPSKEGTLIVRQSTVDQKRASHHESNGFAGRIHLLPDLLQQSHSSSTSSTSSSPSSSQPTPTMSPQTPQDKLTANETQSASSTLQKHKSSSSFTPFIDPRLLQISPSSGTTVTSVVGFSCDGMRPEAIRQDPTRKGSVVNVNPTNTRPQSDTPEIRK

[3] = molecular target: T3, MAP4K4 kinase domain (KD, 1-289), 3xFLAG-tagged (human) (UniProt O95819)
T3 sequence: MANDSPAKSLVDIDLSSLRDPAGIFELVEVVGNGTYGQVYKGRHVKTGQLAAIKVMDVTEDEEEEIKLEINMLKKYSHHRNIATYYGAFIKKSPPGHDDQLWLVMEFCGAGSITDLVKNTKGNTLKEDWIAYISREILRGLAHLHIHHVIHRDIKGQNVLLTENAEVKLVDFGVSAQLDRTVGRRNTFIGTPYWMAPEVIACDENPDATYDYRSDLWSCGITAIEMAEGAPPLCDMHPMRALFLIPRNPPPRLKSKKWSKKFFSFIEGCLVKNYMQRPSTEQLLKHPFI

[4] = molecular target: T1, MAP4K4 intermediate domain 1 (ID1, 290-634), 3xFLAG-tagged (human); remark: listed apart in the source
[5] = molecular target: T2, MAP4K4 intermediate domain 2 (ID2, 635-954), 3xFLAG-tagged (human); remark: listed apart in the source
[6] = molecular target: T3, MAP4K4 kinase domain (KD, 1-289), 3xFLAG-tagged (human); remark: listed apart in the source
[7] = molecular target: STRIP1 (human (endogenous in HEK-293T and DAOY)) (UniProt Q5VSL9)
[8] = molecular target: 3xFLAG-BioID2-MAP4K4 (human) (UniProt O95819)
[9] = molecular target: MAP4K4 (experiment of Figure S1G, with or without GNE-495) (human) (UniProt O95819)
[10] = molecular target: full-length MAP4K4-FLAG (3xFLAG-tagged) (human) (UniProt O95819)

binding [1]: no binding | binding [2]: no binding | binding [3]: no binding
Molecule: STRIP1 (from UniProt Q5VSL9 1-837)

binding [4]: no binding | binding [5]: no binding | binding [6]: no binding | binding [7]: binds
B1: STRN4 (protein, UniProt Q9NRL3 1-753)
chain: MMEERAAAAVAAAASSCRPLGSGAGPGPTGAAPVSAPAPGPGPAGKGGGGGGSPGPTAGPEPLSLPGILHFIQHEWARFEAEKARWEAERAELQAQVAFLQGERKGQENLKTDLVRRIKMLEYALKQERAKYHKLKFGTDLNQGEKKADVSEQVSNGPVESVTLENSPLVWKEGRQLLRQYLEEVGYTDTILDMRSKRVRSLLGRSLELNGAVEPSEGAPRAPPGPAGLSGGESLLVKQIEEQIKRNAAGKDGKERLGGSVLGQIPFLQNCEDEDSDEDDELDSVQHKKQRVKLPSKALVPEMEDEDEEDDSEDAINEFDFLGSGEDGEGAPDPRRCTVDGSPHELESRRVKLQGILADLRDVDGLPPKVTGPPPGTPQPRPHEDVFIMDTIGGGEVSLGDLADLTVTNDNDLSCDLSDSKDAFKKTWNPKFTLRSHYDGIRSLAFHHSQSALLTASEDGTLKLWNLQKAVTAKKNAALDVEPIHAFRAHRGPVLAVAMGSNSEYCYSGGADACIHSWKIPDLSMDPYDGYDPSVLSHVLEGHGDAVWGLAFSPTSQRLASCSADGTVRIWDPSSSSPACLCTFPTASEHGVPTSVAFTSTEPAHIVASFRSGDTVLYDMEVGSALLTLESRGSSGPTQINQVVSHPNQPLTITAHDDRGIRFLDNRTGKPVHSMVAHLDAVTCLAVDPNGAFLMSGSHDCSLRLWSLDNKTCVQEITAHRKKHEEAIHAVACHPSKALIASAGADALAKVFV

binding [8]: binds | binding [9]: binds | binding [7]: binds | binding [10]: binds
B2: STRN3 (protein, UniProt Q13033 1-797)
chain: MDELAGGGGGGPGMAAPPRQQQGPGGNLGLSPGGNGAAGGGGPPASEGAGPAAGPELSRPQQYTIPGILHYIQHEWARFEMERAHWEVERAELQARIAFLQGERKGQENLKKDLVRRIKMLEYALKQERAKYHKLKYGTELNQGDLKMPTFESEETKDTEAPTAPQNSQLTWKQGRQLLRQYLQEVGYTDTILDVRSQRVRSLLGLSNSEPNGSVETKNLEQILNGGESPKQKGQEIKRSSGDVLETFNFLENADDSDEDEENDMIEGIPEGKDKHRMNKHKIGNEGLAADLTDDPDTEEALKEFDFLVTAEDGEGAGEARSSGDGTEWDKDDLSPTAEVWDVDQGLISKLKEQYKKERKGKKGVKRANRTKLYDMIADLGDDELPHIPSGIINQSRSASTRMTDHEGARAEEAEPITFPSGGGKSFIMGSDDVLLSVLGLGDLADLTVTNDADYSYDLPANKDAFRKTWNPKYTLRSHFDGVRALAFHPVEPVLVTASEDHTLKLWNLQKTVPAKKSASLDVEPIYTFRAHIGPVLSLAISSNGEQCFSGGIDATIQWWNMPSPSVDPYDTYEPNVLAGTLVGHTDAVWGLAYSGIKNQLLSCSADGTVRLWNPQEKLPCICTYNGDKKHGIPTSVDFIGCDPAHMVTSFNTGSAVIYDLETSQSLVILSSQVDSGLQSNNHINRVVSHPTLPVTITAHEDRHIKFFDNKTGKMIHSMVAHLDAVTSLAVDPNGIYLMSGSHDCSIRLWNLDSKTCVQEITAHRKKLDESIYDVAFHSSKAYIASAGADALAKVFV

From publication doi:10.1101/2021.05.07.442906
